# Results from article PMC7819943, “Rice protein-binding microarrays: a tool to detect cis-acting elements near promoter regions in rice”.
# The other results are listed elsewhere or left out.
# Molecular target: T1, OsSMF1 (Oryza sativa, UniProt Q6ZLB0 1-436)
# T1 sequence: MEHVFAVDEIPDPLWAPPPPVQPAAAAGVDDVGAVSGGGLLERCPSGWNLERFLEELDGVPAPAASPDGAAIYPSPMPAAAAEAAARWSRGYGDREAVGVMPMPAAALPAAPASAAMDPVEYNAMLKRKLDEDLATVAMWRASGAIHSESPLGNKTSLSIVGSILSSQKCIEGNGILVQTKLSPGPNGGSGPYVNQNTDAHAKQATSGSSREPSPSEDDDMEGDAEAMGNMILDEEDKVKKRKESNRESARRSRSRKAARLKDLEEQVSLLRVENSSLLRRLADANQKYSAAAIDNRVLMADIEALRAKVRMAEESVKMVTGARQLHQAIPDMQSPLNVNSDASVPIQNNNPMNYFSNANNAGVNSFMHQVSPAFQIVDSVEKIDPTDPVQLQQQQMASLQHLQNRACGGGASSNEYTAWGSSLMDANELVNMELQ
# Assay: protein-binding microarray (RPBM); PBS, 2% BSA, 51.3 ng/ul salmon testes DNA, 50 uM zinc acetate, 200 nM TF, 25 C, 1 h; high values mean tight binding
# Details: protein: recombinant; tags: N-terminal polyhistidine and DsRed monomer fusion (pET32a); chain copies: 2; label: CyDye5-dUTP incorporated in the synthesized complementary strand; 3' TTTTT single-stranded linker to array surface; dsDNA, one strand shown
# Procedure, shortened: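 The binding signal is fluorescence intensity per feature, in arbitrary units, read on an Axon 4000B scanner. Polyhistidine- and DsRed-tagged transcription factors (N-terminal fusions) from E. coli BL21-CodonPlus were purified on Ni–NTA and applied at 200 nM for 1 h at 25 °C to a double-stranded, BSA-blocked custom Agilent array in buffer with 50 µM zinc acetate.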
row,Sequence,binding signal
1,TGTTTACGTCCAACGTTTAACCGCTCGTCTTATTTGAAATCGGAGTCACCTAGTGCAG,21000 fluorescence intensity (a.u.)
2,ATTAATGTATATGTGTTGCTGATTCAACTTTAAATGCCTACGGAGTCACCTAGTGCAG,3450 fluorescence intensity (a.u.)
3,GGAGTTGTCCCCTCCAATGCTACATGCCAAATCATCCGGACGGAGTCACCTAGTGCAG,3820 fluorescence intensity (a.u.)
4,GATTTGTCGGCCGGTGGCAGCCATGGCTTCTCCTCCTCCTCGGAGTCACCTAGTGCAG,3820 fluorescence intensity (a.u.)
5,TTAATTGAAATGCCACCTAAGCACCACGTCAGCACACAGACGGAGTCACCTAGTGCAG,18700 fluorescence intensity (a.u.)
6,CGTCAAGCAAAGCCCCGCGTGACGCAACACGGATTGGACTCGGAGTCACCTAGTGCAG,5010 fluorescence intensity (a.u.)
7,TCACGGTTCGTTCAGCGCTCCACGCTAGGCTTAATTTGCCCGGAGTCACCTAGTGCAG,3330 fluorescence intensity (a.u.)
8,TATGTAACTGTTGCTTCTAACTTCTGTTCCCCGTCACTGTCGGAGTCACCTAGTGCAG,4120 fluorescence intensity (a.u.)
9,AAATTGTCACGTAAGTGTCACGTCAATGCTATATAGGATGCGGAGTCACCTAGTGCAG,7650 fluorescence intensity (a.u.)
10,TTCCTCTCCTTCTAAATGCCCTCGTCGTCTACTTTTGATCCGGAGTCACCTAGTGCAG,4640 fluorescence intensity (a.u.)
11,TCTTCTGTGCCTGCTCTGTCCACGCATCCAGCAGCTTAGTCGGAGTCACCTAGTGCAG,3330 fluorescence intensity (a.u.)
12,AATCAATTCCCCACCTGTCGTCATTTATCCATCATCACATCGGAGTCACCTAGTGCAG,4510 fluorescence intensity (a.u.)
13,ACTGGATCGCTGTTTCCTCCACGTGGTGCATTGTCCTTGGCGGAGTCACCTAGTGCAG,5240 fluorescence intensity (a.u.)
14,GGGAGGACGAAGGAACGCCAATACCGACATTGCTCAAGCTCGGAGTCACCTAGTGCAG,65300 fluorescence intensity (a.u.)
15,ATTTCGCACGCCATATCCATGCTGGCATGCACATGTGGCGCGGAGTCACCTAGTGCAG,4600 fluorescence intensity (a.u.)
16,GTAATGCAAAGATTTTCCAACACGTTGACACCATACCACCCGGAGTCACCTAGTGCAG,5560 fluorescence intensity (a.u.)
17,AGAGCACGTGTAGGCCCTACCTAACGAGGAACATGTGAAGCGGAGTCACCTAGTGCAG,4840 fluorescence intensity (a.u.)
18,CCGTTGTTTCAGAATTCCGTGGCGGATTGCAACGTGTCGGCGGAGTCACCTAGTGCAG,4280 fluorescence intensity (a.u.)
19,CGTGTGTGTAACTGACATGTGGGTCTCATAGTGTTTGTTACGGAGTCACCTAGTGCAG,5080 fluorescence intensity (a.u.)
20,GGGCTCATCTTCACCGTTGTCATTCAGTTATTCACATAAGCGGAGTCACCTAGTGCAG,3360 fluorescence intensity (a.u.)
21,CATTTTGTTGCAAATACCCATCCTCTACTAAGTTTTATTACGGAGTCACCTAGTGCAG,16700 fluorescence intensity (a.u.)

# A few values from the entries so far.
# binding signal with AGAGCACGTGTAGGCCCTACCTAACGAGGAACATGTGAAGCGGAGTCACCTAGTGCAG is entered as 4840 fluorescence intensity (a.u.)
# binding signal with TGTTTACGTCCAACGTTTAACCGCTCGTCTTATTTGAAATCGGAGTCACCTAGTGCAG is entered as 21000 fluorescence intensity (a.u.)
# binding signal with ATTAATGTATATGTGTTGCTGATTCAACTTTAAATGCCTACGGAGTCACCTAGTGCAG is entered as 3450 fluorescence intensity (a.u.)

# Further results:

row,Sequence,binding signal
1,TTGGGAGCAACTCACACACTCCCTTCGAGCAAATATTGTTCGGAGTCACCTAGTGCAG,34100 fluorescence intensity (a.u.)
2,CATAGTGGGCTGGTGCTTACGTAAGATGAGACTTAGGTGGCGGAGTCACCTAGTGCAG,4070 fluorescence intensity (a.u.)
3,CATCTTCGGCGAGATTTCCACCCGCAGCGATGTCGTCCTCCGGAGTCACCTAGTGCAG,3180 fluorescence intensity (a.u.)
4,ACTGGTCGGATTTGCCACTGTCACCCACTGGAACGACAGACGGAGTCACCTAGTGCAG,3510 fluorescence intensity (a.u.)
5,CTATATTTCCAGGAGTACAAAATGGTGGGCTCGATGTCTTCGGAGTCACCTAGTGCAG,35100 fluorescence intensity (a.u.)
6,ATACTTGGACTATTCTCTTTCGGAAACTTGACTAGTTACACGGAGTCACCTAGTGCAG,43200 fluorescence intensity (a.u.)
7,TTTATTTTGTTATGAGTTGTTTTATTACTCATAGTATTTTCGGAGTCACCTAGTGCAG,3670 fluorescence intensity (a.u.)
8,AGAAAGAGGAGAGGGCTCTTCCTAGTCATCGACCAATCTTCGGAGTCACCTAGTGCAG,4350 fluorescence intensity (a.u.)
9,CCGCCAACGCCGACGACGAGGCCCGCGCCCTCCTCCCTCGCGGAGTCACCTAGTGCAG,3290 fluorescence intensity (a.u.)
10,GTTCCCTCTTGCCAACAACAGCTGACTAATAGATGGGTAACGGAGTCACCTAGTGCAG,3360 fluorescence intensity (a.u.)
11,ACCTGTCAGGGACACACGTCCCACTGACCTGAATTCACCGCGGAGTCACCTAGTGCAG,3900 fluorescence intensity (a.u.)
12,TAGCACCACATTGTCAAATCATAGAGCAATTAGGCTTAAACGGAGTCACCTAGTGCAG,22700 fluorescence intensity (a.u.)
13,TATTGGTTTTGTAAGTCTGGGGACGTGTTATATCCGGTTTCGGAGTCACCTAGTGCAG,5300 fluorescence intensity (a.u.)
14,GCGGTGCAGGGCGGTGGCGGCGGCGGGTGGGGCGGTGGCGCGGAGTCACCTAGTGCAG,5280 fluorescence intensity (a.u.)
15,CACTTGAAAGGAGCGGTATGGCGGTGACTTAAGGTTTGTTCGGAGTCACCTAGTGCAG,4040 fluorescence intensity (a.u.)
16,TTTTCGCTGAGGTGGCAGGTTAACTTGTCTGCTTTCGGCCCGGAGTCACCTAGTGCAG,39300 fluorescence intensity (a.u.)
17,CATTAGACATATATTTTCTATATTTATATTGATATTATATCGGAGTCACCTAGTGCAG,3280 fluorescence intensity (a.u.)
18,TGTGATTTATATCGTGGAAGATGATGGCTTGGCGGTATAGCGGAGTCACCTAGTGCAG,25800 fluorescence intensity (a.u.)
19,CGTCACACACTGCTTACACCCACGCACACACCGCGGCGCCCGGAGTCACCTAGTGCAG,3510 fluorescence intensity (a.u.)
20,TGACATTCTGTTTTGCTTTTCCTGCTGATATCAACATGTTCGGAGTCACCTAGTGCAG,3350 fluorescence intensity (a.u.)
21,GCGCGGCTTTGACCCAGGGATAATCCCACTACTGGCTACTCGGAGTCACCTAGTGCAG,3890 fluorescence intensity (a.u.)
